PubChem BioAssay AID652243 | Drosophila RNAi Screening Center – 2013

Aim: 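Fly regulators of androgen-dependent reporter output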 (primary screen)
System: Drosophila S2R+ cells
Reagent: long dsRNA against Drosophila genes
Timing: 72 h (48 h, then 24 h hormone)
Treatment: synthetic androgen R1881 at 10 nM for 24 h
Measurement: 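Per-well raw luminescence of the androgen-driven firefly reporter and of the Renilla control, two replicates each, without normalisation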
Scale: firefly reporter light: higher = more light from androgen-responsive reporter; Renilla control light: higher = more constitutive control signal (cell number, transfection)
Call rule: 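Across duplicate plates, a knock-down whose log firefly/Renilla ratio shifted a set fold down or up from the GFP/LacZ control mean was a hit; the downward cut appears as both 1.5 and 3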
Meaning of the calls: active = hit: reporter lowered or raised; inactive = no hit
The screen tested about 24,000 reagents; this is an unselected part of those that have a named target and a result. Over the whole deposit, 246 (1%) were called active. 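Plates not normalised; calls are printed but the firefly/Renilla ratio behind them is not deposited; fold cut for lowering reported inconsistently.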 Raw values vary from plate to plate and are shown uncorrected. A plus sign joins genes that one reagent is predicted to hit. Not given: the amount of reagent.

| target gene | amplicon | firefly reporter light, replicate 1 | firefly reporter light, replicate 2 | Renilla control light, replicate 1 | Renilla control light, replicate 2 | call |
| --- | --- | --- | --- | --- | --- | --- |
| CG17350 | DRSC02611 | 1.22e5 | 1.34e5 | 1.13e6 | 1.06e6 | inactive |
| CG12948 | DRSC14576 | 1.07e5 | 1.02e5 | 1.54e6 | 1.63e6 | inactive |
| CG12948 | DRSC27910 | 6.88e5 | 2.84e5 | 2.05e6 | 1.14e6 | inactive |
| CG18659 | DRSC06784 | 3.26e5 | 2.07e5 | 2.28e6 | 1.74e6 | inactive |
| ND-SGDH | DRSC11102 | 3.76e5 | 3.07e5 | 4.47e6 | 3.19e6 | inactive |
| CG13481 | DRSC10023 | 1.28e5 | 89371 | 1.41e6 | 1.19e6 | inactive |
| CG13481 | DRSC29353 | 4.84e5 | 5.16e5 | 1.06e6 | 1.06e6 | inactive |
| mei-218 + mei-217 | DRSC29292 | 4.40e5 | 8.20e5 | 1.52e6 | 1.62e6 | inactive |
| sktl | DRSC04715 | 6.53e5 | 4.60e5 | 1.61e6 | 1.66e6 | inactive |
| sktl | DRSC36718 | – | – | – | – | inactive |
| sktl | DRSC36719 | – | – | – | – | inactive |
| Tace | DRSC16340 | 99925 | 95104 | 7.37e5 | 4.52e5 | inactive |
| vls | DRSC02101 | 1.00e6 | 1.17e6 | 1.20e6 | 1.67e6 | inactive |
| vls | DRSC27088 | 3.69e5 | 5.02e5 | 1.08e6 | 8.95e5 | inactive |
| CG5254 | DRSC18611 | 2.53e5 | 1.71e5 | 2.97e6 | 1.78e6 | inactive |
| Myc | DRSC23360 | 6.11e5 | 5.02e5 | 1.79e5 | 1.86e5 | inactive |
| Ir87a | DRSC14836 | 52938 | 68068 | 9.72e5 | 7.75e5 | inactive |
| Ir87a | DRSC27649 | 2.00e5 | 1.69e5 | 2.20e5 | 3.77e5 | inactive |
| Fib | DRSC04614 | 1.91e5 | 3.30e5 | 1.63e6 | 2.20e6 | inactive |
| mthl6 | DRSC10234 | 1.54e5 | 1.96e5 | 1.82e6 | 2.29e6 | inactive |
| CG34334 | DRSC38787 | 8.44e5 | 9.59e5 | 1.81e6 | 2.01e6 | inactive |
| pes | DRSC03033 | 2.12e5 | 1.54e5 | 1.59e6 | 1.46e6 | inactive |
| pes | DRSC25954 | 3.03e5 | 3.32e5 | 6.45e5 | 6.78e5 | inactive |
| CG5267 | DRSC06928 | 87656 | 63407 | 7.93e5 | 7.93e5 | inactive |
| CG2909 | DRSC18241 | 1.59e5 | 1.74e5 | 2.37e6 | 3.09e6 | inactive |
| Idgf4 | DRSC18675 | 2.10e5 | 2.11e5 | 2.33e6 | 2.61e6 | inactive |
| Idgf4 | DRSC24939 | 4.48e5 | 3.47e5 | 6.94e5 | 6.27e5 | inactive |
| CG34266 | DRSC08323 | 2.30e5 | 2.14e5 | 1.19e6 | 1.93e6 | inactive |
| Ugt302E1 | DRSC15635 | 2.60e5 | 2.78e5 | 4.14e6 | 4.68e6 | inactive |
| Ugt302E1 | DRSC29326 | 5.13e5 | 4.25e5 | 1.34e6 | 1.34e6 | inactive |
| CG18467 | DRSC06758 | 64889 | 98682 | 1.52e6 | 1.52e6 | inactive |
| Snapin + HemK2 | DRSC26185 | 4.95e5 | 5.58e5 | 7.32e5 | 6.04e5 | inactive |
| CG14143 | DRSC10146 | 1.94e5 | 1.45e5 | 2.08e6 | 1.48e6 | inactive |
| CG14143 | DRSC26503 | 5.44e5 | 5.10e5 | 6.79e5 | 4.21e5 | inactive |
| Rab3GAP1 | DRSC00291 | 1.13e5 | 96240 | 6.04e5 | 8.77e5 | inactive |
| Rab3GAP1 | DRSC00703 | 1.52e5 | 1.12e5 | 1.31e6 | 1.01e6 | inactive |
| Rab3GAP1 | DRSC28988 | 4.74e5 | 4.54e5 | 1.00e6 | 1.17e6 | inactive |
| CG31681 | DRSC00107 | 1.82e5 | 1.75e5 | 4.29e5 | 2.10e5 | inactive |
| CG31681 | DRSC25893 | 4.03e5 | 4.36e5 | 8.72e5 | 8.34e5 | inactive |
| CG3511 | DRSC04382 | 6.83e5 | 7.55e5 | 1.23e6 | 1.42e6 | inactive |
| CG3511 | DRSC28281 | 4.14e5 | 6.55e5 | 9.14e5 | 1.08e6 | inactive |
| Ldh | DRSC11198 | 1.40e5 | 1.13e5 | 1.94e6 | 1.54e6 | inactive |
| CG18234 | DRSC10309 | 2.54e5 | 2.60e5 | 2.40e6 | 2.64e6 | inactive |
| CG31373 | DRSC16052 | 1.77e5 | 2.59e5 | 2.94e6 | 2.74e6 | inactive |
| Taf12L | DRSC00467 | 1.44e5 | 85003 | 1.03e6 | 9.55e5 | inactive |
| CG15249 | DRSC17978 | 4.32e5 | 3.86e5 | 3.97e6 | 3.27e6 | inactive |
| CG8925 | DRSC16455 | 2.16e5 | 2.92e5 | 2.59e6 | 3.07e6 | inactive |
| CG8925 | DRSC16456 | 1.91e5 | 2.40e5 | 3.58e6 | 3.56e6 | inactive |
| CG8925 | DRSC16457 | 3.09e5 | 3.31e5 | 3.37e6 | 3.42e6 | inactive |
| Trpm | DRSC06629 | 9.62e5 | 1.09e6 | 2.36e6 | 2.21e6 | inactive |
| Trpm | DRSC21566 | 6.18e5 | 7.33e5 | 2.05e6 | 1.93e6 | inactive |
| Trpm | DRSC27597 | 1.90e5 | 2.50e5 | 3.36e5 | 4.56e5 | inactive |
| Trpm | DRSC29042 | 8.38e5 | 4.41e5 | 2.08e6 | 1.38e6 | inactive |
| Cngl | DRSC19795 | 51179 | 33281 | 4.59e5 | 5.57e5 | inactive |
| Cngl | DRSC20318 | 3.84e5 | 4.17e5 | 2.18e6 | 3.02e6 | inactive |
| Cngl | DRSC23577 | 6.25e5 | 3.09e5 | 6.04e5 | 4.92e5 | inactive |
| Cngl | DRSC25333 | 7.39e5 | 6.08e5 | 8.35e5 | 7.52e5 | inactive |
| mld | DRSC13681 | 15871 | 14901 | 78153 | 1.06e5 | inactive |
| mld | DRSC14622 | 79120 | 86132 | 4.50e5 | 4.81e5 | inactive |
| mld | DRSC23427 | 7.66e5 | 6.82e5 | 8.95e5 | 9.96e5 | inactive |
